Test results taken from patent EP3362444B1, “COMPOUNDS” (Exonate Limited, priority 2015, dated 2017).
Some of these results come from one statement about several compounds together.

The chains behind the UniProt entries cited, without tags or fusion partners.
UniProt Q96SB4, whole entry: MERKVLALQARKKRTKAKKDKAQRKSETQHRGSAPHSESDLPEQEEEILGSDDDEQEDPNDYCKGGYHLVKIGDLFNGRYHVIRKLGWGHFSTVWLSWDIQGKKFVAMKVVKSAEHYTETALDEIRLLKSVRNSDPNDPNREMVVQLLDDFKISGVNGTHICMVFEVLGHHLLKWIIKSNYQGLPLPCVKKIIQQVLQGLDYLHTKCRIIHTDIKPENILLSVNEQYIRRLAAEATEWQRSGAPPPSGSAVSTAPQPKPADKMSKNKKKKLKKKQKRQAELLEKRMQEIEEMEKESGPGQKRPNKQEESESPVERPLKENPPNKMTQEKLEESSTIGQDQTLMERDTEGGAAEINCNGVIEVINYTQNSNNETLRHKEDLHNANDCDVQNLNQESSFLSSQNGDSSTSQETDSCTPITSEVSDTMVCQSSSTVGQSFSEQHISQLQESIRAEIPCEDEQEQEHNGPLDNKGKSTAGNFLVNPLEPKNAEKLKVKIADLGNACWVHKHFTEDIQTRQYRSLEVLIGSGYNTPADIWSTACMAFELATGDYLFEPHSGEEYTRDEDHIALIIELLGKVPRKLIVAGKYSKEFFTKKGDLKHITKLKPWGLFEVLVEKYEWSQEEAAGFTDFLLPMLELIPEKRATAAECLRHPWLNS

Molecular target: T1, SRPK1 (Homo sapiens, UniProt Q96SB4)
T1 construct: 0.1 µg of purified SRPK1 kinase
Assay: In vitro kinase assay (Kinase-Glo), SRPK1 inhibition
Type: biochemical
Protocol: Candidate compounds were tested for SRPK1 inhibition using a Kinase-Glo assay (Promega, Southampton, UK32). […] Candidate compounds were serially diluted from 10 µM to 0.5 nM and added to the reaction mixture, wells with omitted SRPK1 kinase and omitted compounds were also added as controls. All wells contained 1% DMSO (Fisher Scientific, Loughborough, UK). One micromolar ATP was added, wells minus ATP were used as background controls. The plate was then incubated at 30°C for 10 minutes. An equal volume of Kinase-Glo (25 µL; Promega) was added to each well and the plate read for luminescence using a Fluostar Optima (BMG Labtech) .

Compound	activity against SRPK1
O=C(Nc1cc(C(F)(F)F)ccc1N1CCN(Cc2ncco2)CC1)c1ccc(-c2ccncc2)o1 [Compound 16, N-(2-(4-(oxazol-2-ylmethyl)piperazin-1-yl)-5-(trifluoromethyl)phenyl)-5-(pyridin-4-yl)furan-2-carboxamide]	sub-nanomolar
O=C(Nc1cc(C(F)(F)F)ccc1N1CCN(Cc2cocn2)CC1)c1ccc(-c2ccncc2)o1 [Compound 17, N-(2-(4-(oxazol-4-ylmethyl)piperazin-1-yl)-5-(trifluoromethyl)phenyl)-5-(pyridin-4-yl)furan-2-carboxamide]	sub-nanomolar
O=C(Nc1cc(C(F)(F)F)ccc1N1CCN(Cc2cnco2)CC1)c1ccc(-c2ccncc2)o1 [Compound 18, N-(2-(4-(oxazol-5-ylmethyl)piperazin-1-yl)-5-(trifluoromethyl)phenyl)-5-(pyridin-4-yl)furan-2-carboxamide]	sub-nanomolar
